Record: PubChem BioAssay AID1259424 (University of Nebraska Medical Center, 2018)

Purpose: 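Seek colon cancer survival genes behaving like KSR1, using a six-gene signature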 (primary screen)
Cell system: human HCT116 colon cancer cells
Reagent: siRNA pool against human genes, 50 nM
Measured: 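Six signature mRNAs by branched-DNA multiplex assay, scaled to two housekeeping genes and non-targeting median, log2; matched to mean KSR1 knockdown profile by Pearson correlation and euclidean distance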
Direction: mean correlation with KSR1 profile and KSR1 correlation: higher = expression change more like KSR1 knockdown; mean distance from KSR1 profile: higher = expression change less like KSR1 knockdown
Here is a random part of about 14,000 reagents tested. 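Higher correlation or smaller distance means closer resemblance to KSR1 loss; control wells, including KSR1 knockdowns, recur on many plates.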 Some reagents were tested in more than one well and are listed for each. Further read-outs or replicates are left out here. Not given: the time to read-out.

gene | mean correlation with KSR1 profile | mean distance from KSR1 profile | KSR1 correlation, replicate 1 | KSR1 correlation, replicate 2
SETD6 (SET domain containing 6, protein lysine methyltransferase) | -0.0327 | 2.93 | -0.0853 | 0.101
CTCF (CCCTC-binding factor) | 0.3 | 2.43 | 0.514 | 0.455
GREM1 (gremlin 1, DAN family BMP antagonist) | 0.0455 | 1.71 | 0.0805 | -0.868
RIBC2 (RIB43A domain with coiled-coils 2) | -0.45 | 4.57 | -0.407 | -0.535
DLX2 (distal-less homeobox 2) | 0.734 | 1.51 | 0.766 | 0.784
NPRL2 (NPR2 like, GATOR1 complex subunit) | -0.311 | 2.18 | -0.382 | -0.494
NMRK2 (nicotinamide riboside kinase 2) | 0.253 | 2.72 | -0.331 | 0.116
SART1 | 0.276 | 2.57 | 0.261 | 0.18
RACGAP1P1 (Rac GTPase activating protein 1 pseudogene 1) | 0.146 | 3.07 | 0.00652 | 0.17
CDC7 (cell division cycle 7) | 0.39 | 1.53 | 0.763 | 0.0563
MAST3 (microtubule associated serine/threonine kinase 3) | -0.641 | 3.04 | -0.575 | -0.405
SWT1 (SWT1 RNA endoribonuclease homolog) | 0.606 | 1.19 | 0.404 | 0.664
SPRR1B (small proline rich protein 1B) | -0.427 | 3.29 | -0.557 | -0.369
NTSR1 (neurotensin receptor 1) | 0.717 | 1.3 | 0.74 | 0.612
ICOSLG (inducible T cell costimulator ligand) | -0.228 | 3.22 | -0.337 | -0.211
VMP1 (vacuole membrane protein 1) | -0.0743 | 2.94 | -0.209 | -0.0626
ARFGEF1 (ARF guanine nucleotide exchange factor 1) | -0.259 | 3.04 | -0.373 | -0.0441
MED20 (mediator complex subunit 20) | -0.305 | 2.67 | -0.392 | -0.15
SLC6A7 | 0.0537 | 2.29 | -0.169 | -0.0295
SESN1 (sestrin 1) | 0.243 | 3.21 | 0.169 | 0.181
ATP8B1 (ATPase phospholipid transporting 8B1) | -0.235 | 2.36 | -0.216 | -0.557
CCDC144A (coiled-coil domain containing 144A) | 0.595 | 1.25 | 0.482 | 0.643
JAM3 (junctional adhesion molecule 3) | 0.829 | 1.83 | 0.597 | 0.853
KLK12 (kallikrein related peptidase 12) | -0.376 | 1.34 | -0.196 | -0.651
ZNF658 (zinc finger protein 658) | -0.494 | 2.33 | -0.363 | -0.354
OLA1 (Obg like ATPase 1) | 0.404 | 1.38 | 0.138 | 0.228
RAB11FIP3 (RAB11 family interacting protein 3) | -0.119 | 2.77 | -0.181 | -0.121
TMEM106B (transmembrane protein 106B) | -0.735 | 2.56 | -0.713 | -0.424
CX3CR1 (C-X3-C motif chemokine receptor 1) | 0.712 | 2.15 | 0.812 | 0.649
MXD4 (MAX dimerization protein 4) | -0.243 | 1.54 | 0.356 | 0.216
BAG1 (BAG cochaperone 1) | 0.0152 | 3.2 | 0.168 | -0.403
SPAG8 (sperm associated antigen 8) | -0.374 | 1.75 | -0.177 | -0.506
TYROBP (transmembrane immune signaling adaptor TYROBP) | 0.0892 | 2.21 | 0.0656 | 0.0559
GEMIN5 (gem nuclear organelle associated protein 5) | -0.203 | 1.44 | -0.00898 | -0.498
TLE1 (TLE family member 1, transcriptional corepressor) | -0.468 | 2.48 | -0.414 | -0.32
CCNDBP1 (cyclin D1 binding protein 1) | -0.519 | 4.11 | -0.609 | -0.495
TMSB4X (thymosin beta 4 X-linked) | 0.382 | 4.51 | 0.442 | 0.495
CWF19L1 (CWF19 like cell cycle control factor 1) | -0.114 | 3.76 | -0.101 | -0.0915
SLC7A11 | 0.104 | 1.73 | 0.407 | -0.253
IGFBP6 (insulin like growth factor binding protein 6) | 0.515 | 1.95 | -0.0379 | 0.77
NBAS (NBAS subunit of NRZ tethering complex) | 0.22 | 2.91 | 0.183 | 0.246
ACSL6 (acyl-CoA synthetase long chain family member 6) | 0.184 | 1 | 0.44 | 0.362
ACSL6 (acyl-CoA synthetase long chain family member 6) | 0.0974 | 2.32 | -0.0957 | 0.262
WNT8A (Wnt family member 8A) | 0.321 | 2.67 | 0.574 | 0.193
AQP9 (aquaporin 9) | 0.101 | 1.93 | -0.226 | 0.298
CCT4 (chaperonin containing TCP1 subunit 4) | 0.213 | 1.29 | 0.612 | 0.189
INSL4 (insulin like 4) | 0.219 | 1.69 | 0.267 | 0.0876
SNX14 (sorting nexin 14) | -0.753 | 3.53 | -0.609 | -0.681
ST6GALNAC2 (ST6 N-acetylgalactosaminide alpha-2,6-sialyltransferase 2) | -0.387 | 2.95 | -0.264 | -0.574
TSSC4 (tumor suppressing subtransferable candidate 4) | 0.308 | 1.27 | 0.328 | 0.454

3 entries from above, set out differently:
{"gene":"WNT8A (Wnt family member 8A)","mean correlation with KSR1 profile":0.321,"mean distance from KSR1 profile":2.67,"KSR1 correlation, replicate 1":0.574,"KSR1 correlation, replicate 2":0.193}
{"gene":"AQP9 (aquaporin 9)","mean correlation with KSR1 profile":0.101,"mean distance from KSR1 profile":1.93,"KSR1 correlation, replicate 1":-0.226,"KSR1 correlation, replicate 2":0.298}
{"gene":"CCT4 (chaperonin containing TCP1 subunit 4)","mean correlation with KSR1 profile":0.213,"mean distance from KSR1 profile":1.29,"KSR1 correlation, replicate 1":0.612,"KSR1 correlation, replicate 2":0.189}
